Test results: publication PMC11976965
Positions count from the first letter of the chain named. No constants are given. Whether binding was seen depends on the method and setting. Binding seen in cells or lysates may run through a third protein. Some binding calls cover weakened binding; strength is not graded here. Where a sequence is shown, tags or fusion partners need not be part of it.

Sequences of proteins named here, by UniProt entry; tags and fusion partners are left off. Residues count along the entry.
UniProt O95831, residues 102-613: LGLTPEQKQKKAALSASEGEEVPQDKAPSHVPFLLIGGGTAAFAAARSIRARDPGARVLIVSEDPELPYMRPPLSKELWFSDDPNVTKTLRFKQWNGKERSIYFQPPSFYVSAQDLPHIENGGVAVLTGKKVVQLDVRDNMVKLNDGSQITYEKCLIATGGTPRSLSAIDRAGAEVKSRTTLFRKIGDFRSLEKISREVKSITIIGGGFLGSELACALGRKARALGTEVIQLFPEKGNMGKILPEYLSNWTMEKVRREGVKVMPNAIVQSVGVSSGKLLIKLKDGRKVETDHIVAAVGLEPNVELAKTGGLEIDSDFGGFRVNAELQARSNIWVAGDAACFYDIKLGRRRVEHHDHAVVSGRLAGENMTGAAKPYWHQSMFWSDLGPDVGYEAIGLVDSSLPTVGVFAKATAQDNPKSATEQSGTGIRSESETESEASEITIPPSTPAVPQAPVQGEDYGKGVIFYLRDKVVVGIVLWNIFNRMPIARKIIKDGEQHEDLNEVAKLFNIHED

Experiments:
Assay in all cases: co-IP; FLAG-tag affinity purification with MIA40_(FLAG) as bait on anti-FLAG M2 affinity gel, 2 h at 4 °C; cells solubilised in 50 mM Tris-HCl pH 7.4, 150 mM NaCl, 10% glycerol, 1 mM EDTA, 2 mM PMSF, 50 mM IAA, 1% digitonin; eluates by SDS-PAGE and Western blot; control HEK293T versus NDUFA13-KO cells; with or without 100 µM NADH; cells treated with 10 or 100 nM rotenone for 12 h; with or without Nde2-HA expression
[1] = biological target: T1, MIA40_(FLAG) (Mitochondrial intermembrane space import and assembly protein 40, FLAG-tagged), transfected in HEK293T cells (human) (UniProt Q8N4Q1)
T1 sequence: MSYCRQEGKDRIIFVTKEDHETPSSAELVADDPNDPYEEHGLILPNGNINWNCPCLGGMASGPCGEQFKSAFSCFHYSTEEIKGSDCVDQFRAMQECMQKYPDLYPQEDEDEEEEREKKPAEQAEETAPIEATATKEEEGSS

[2] = biological target: T2, MIA40WT_(FLAG), wild-type MIA40 with FLAG tag, inducible expression in Flp-In T-REx 293 cells (human) (UniProt Q8N4Q1)
T2 sequence: T1 sequence

[3] = biological target: T3, MIA40-C55S_(FLAG), inducible expression in Flp-In T-REx 293 cells (human) (UniProt Q8N4Q1)
T3 sequence: T1 sequence with C55S

binding [1]: binds
binding [2]: binds
binding [3]: binds
Substance: apoptosis-inducing factor 1 (AIFM1) (from UniProt O95831 102-613)
